The list shows a part of the results, in another mix than the full data. For part of these data: At the low end of the ranking, values are background and their order means little. The list shows a part of the results. For part of these data: The exact form of the protein is not confirmed.

The chains behind the UniProt entries cited, without tags or fusion partners. Where a name states a change or a piece, a line headed by the entry shows the natural chain unless it says otherwise.
UniProt Q00613: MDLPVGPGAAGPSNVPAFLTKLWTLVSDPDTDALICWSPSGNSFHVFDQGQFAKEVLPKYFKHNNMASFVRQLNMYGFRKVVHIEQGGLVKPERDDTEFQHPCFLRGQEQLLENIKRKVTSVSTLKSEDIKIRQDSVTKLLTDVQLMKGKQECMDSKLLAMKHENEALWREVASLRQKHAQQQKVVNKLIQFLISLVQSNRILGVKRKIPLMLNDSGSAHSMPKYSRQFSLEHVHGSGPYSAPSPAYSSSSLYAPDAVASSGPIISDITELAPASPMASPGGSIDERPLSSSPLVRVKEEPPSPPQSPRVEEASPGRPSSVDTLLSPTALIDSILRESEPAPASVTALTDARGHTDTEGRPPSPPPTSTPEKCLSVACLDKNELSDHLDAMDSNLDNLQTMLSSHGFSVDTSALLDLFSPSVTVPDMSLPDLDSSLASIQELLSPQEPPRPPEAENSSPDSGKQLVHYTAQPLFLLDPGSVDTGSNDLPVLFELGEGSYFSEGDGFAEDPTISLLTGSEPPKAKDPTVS

The first assay has as its target HSF1 (UniProt Q00613). The assay is described as follows: DAPPL (digital affinity profiling via proximity ligation, sequencing). The note with it: 10 mM Tris-HCl pH 7.5, 50 mM NaCl, 1 mM DTT, 4% glycerol, room temperature, 30 min; GST-TFs on glutathione beads, 16-mer random dsDNA library, 0.1% …; high values mean tight binding; double strand, one strand shown; scale: fold enrichment (6-mer frequency, TF over GST control).
GACGGC had a binding signal of 0.6.

In turn, GAGGGA yielded a binding signal of 0.51.

For GAGTTA, the binding signal amounted to 0.625.

As for GAGAAG, the binding signal came to 1.22.

GCGGAC gave a binding signal of 0.457.

The sequence GGTGCC yielded a binding signal of 0.557.

Sequence AGGTCG had a binding signal of 0.43.

The sequence AGGTCA displayed a binding signal of 0.605.

Consider TGTGTC, for which the binding signal turned out to be 0.595.

Consider GGTAGG, for which the binding signal worked out at 0.553.

Sequence GGGCAG registered a binding signal of 0.442.

Sequence GAGAGG came in with a binding signal of 0.478.

TCGGGC: the binding signal turned out to be 0.48.

CCATGT yielded a binding signal of 0.663.

With GCCCAG, the binding signal stood at 0.794.

GACACA: the binding signal was 0.663.

GTACGT registered a binding signal of 0.73.

Consider TCGTGT, for which the binding signal stood at 0.749.

In turn, ATCGGT came in with a binding signal of 0.66.

For GCATGA, the binding signal was found to be 0.724.

In turn, GTGGAG showed a binding signal of 0.393.

GGTAGA showed a binding signal of 0.725.

In turn, GTTGGG showed a binding signal of 0.524.

For AGACAT, the binding signal came out at 0.748.

For TCAGGA, the binding signal was determined as 0.844.

TCGGAG displayed a binding signal of 0.197.

As to TGAGAT, the binding signal is 0.805.

In the case of GTCAAC, the binding signal was 0.658.

The sequence GGGTTG yielded a binding signal of 0.664.

GGCGAA yielded a binding signal of 0.799.

The sequence CAGGGC registered a binding signal of 0.631.

Sequence GAACGG had a binding signal of 0.552.

GTCGTG: the binding signal was 0.309.

Consider AGAGTT, for which the binding signal came to 0.821.

On to GACGAG, for which the binding signal was found to be 0.57.

GGTGGA displayed a binding signal of 0.602.

AGCTGG yielded a binding signal of 0.938.

Sequence GAGCAA returned a binding signal of 0.748.

GGGTGC displayed a binding signal of 0.572.

The target in the next assay is T1, ELF2 (UniProt Q15723).
T1 sequence: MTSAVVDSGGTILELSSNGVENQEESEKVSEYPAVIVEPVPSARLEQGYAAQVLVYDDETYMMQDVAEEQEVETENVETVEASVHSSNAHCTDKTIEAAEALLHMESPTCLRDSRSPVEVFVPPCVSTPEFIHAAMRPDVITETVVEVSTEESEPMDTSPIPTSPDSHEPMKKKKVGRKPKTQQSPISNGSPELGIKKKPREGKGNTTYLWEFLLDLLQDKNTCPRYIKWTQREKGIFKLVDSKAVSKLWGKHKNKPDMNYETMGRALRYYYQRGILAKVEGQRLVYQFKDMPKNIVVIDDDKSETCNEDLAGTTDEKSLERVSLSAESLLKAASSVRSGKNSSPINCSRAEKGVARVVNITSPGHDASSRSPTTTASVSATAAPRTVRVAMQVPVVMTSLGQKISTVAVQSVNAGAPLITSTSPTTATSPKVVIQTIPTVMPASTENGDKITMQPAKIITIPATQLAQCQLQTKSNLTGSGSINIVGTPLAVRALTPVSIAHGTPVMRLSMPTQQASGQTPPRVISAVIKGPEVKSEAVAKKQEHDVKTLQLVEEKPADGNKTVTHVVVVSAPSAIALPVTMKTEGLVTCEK
Described as above. Conditions: 10 mM Tris-HCl pH 7.5, 50 mM NaCl, 1 mM DTT, 4% glycerol, room temperature, 30 min; GST-TFs on glutathione beads, 16-mer random dsDNA library, 0.1% …; high values mean tight binding; double strand, one strand shown; scale: fold enrichment (6-mer frequency, TF over GST control).
On to GACGGC, for which the binding signal turned out to be 0.685.

Regarding GAGGGA, the binding signal was 0.484.

With GAGTTA, the binding signal came out at 0.596.

With GAGAAG, the binding signal was 0.681.

As for GCGGAC, the binding signal turned out to be 0.769.

In turn, GGTGCC came in with a binding signal of 0.754.

AGGTCG showed a binding signal of 0.471.

Take AGGTCA: the binding signal amounted to 0.698.

On to TGTGTC, for which the binding signal is 0.742.

Regarding GGTAGG, the binding signal was 0.651.

GGGCAG returned a binding signal of 0.56.

For the sequence GAGAGG, the binding signal was found to be 0.462.

The sequence TCGGGC gave a binding signal of 0.505.

The sequence CCATGT displayed a binding signal of 0.769.

Turning to GCCCAG, the binding signal was 0.72.

As to GACACA, the binding signal turned out to be 0.877.

GTACGT showed a binding signal of 0.855.

For the sequence TCGTGT, the binding signal was 0.718.

ATCGGT returned a binding signal of 0.684.

In turn, GCATGA displayed a binding signal of 0.77.

On to GTGGAG, for which the binding signal was 0.411.

In turn, GGTAGA returned a binding signal of 0.621.

GTTGGG: the binding signal was found to be 0.659.

For AGACAT, the binding signal amounted to 0.804.

TCAGGA: the binding signal amounted to 0.988.

Consider TCGGAG, for which the binding signal turned out to be 0.182.

The sequence TGAGAT returned a binding signal of 0.668.

GTCAAC gave a binding signal of 0.874.

Regarding GGGTTG, the binding signal worked out at 0.825.

Consider GGCGAA, for which the binding signal worked out at 0.698.

For the sequence CAGGGC, the binding signal amounted to 0.755.

GAACGG showed a binding signal of 0.605.

GTCGTG yielded a binding signal of 0.365.

AGAGTT: the binding signal is 0.801.

With GACGAG, the binding signal is 0.505.

GGTGGA came in with a binding signal of 0.58.

AGCTGG had a binding signal of 0.841.

On to GAGCAA, for which the binding signal worked out at 0.725.

Take GGGTGC: the binding signal came to 0.772.

Values taken from paper PMC7862700.
